The assay deals with T1, Flag-IRF7 (mouse) (UniProt P70434).
T1 sequence: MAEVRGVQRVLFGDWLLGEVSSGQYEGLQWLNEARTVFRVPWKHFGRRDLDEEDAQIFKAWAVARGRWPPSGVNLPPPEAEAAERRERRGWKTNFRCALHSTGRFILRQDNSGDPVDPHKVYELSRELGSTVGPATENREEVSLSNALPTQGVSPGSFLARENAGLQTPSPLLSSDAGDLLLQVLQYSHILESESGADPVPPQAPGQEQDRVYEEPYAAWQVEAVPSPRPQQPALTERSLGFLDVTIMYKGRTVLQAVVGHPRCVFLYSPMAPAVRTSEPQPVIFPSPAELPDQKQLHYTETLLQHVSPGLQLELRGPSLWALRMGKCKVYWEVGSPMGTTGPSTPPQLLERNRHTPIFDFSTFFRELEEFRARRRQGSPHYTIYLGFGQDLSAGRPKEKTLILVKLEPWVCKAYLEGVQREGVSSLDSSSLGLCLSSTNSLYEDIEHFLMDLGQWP
Briefly: co-IP; HEK293T cells co-transfected with Flag-IRF7 and HA-tagged p200 family protein or mutant; lysate immunoprecipitated with anti-Flag, immunoblot with anti-HA.

Amino acid sequences for entries named in this document (tags omitted).
UniProt Q16666: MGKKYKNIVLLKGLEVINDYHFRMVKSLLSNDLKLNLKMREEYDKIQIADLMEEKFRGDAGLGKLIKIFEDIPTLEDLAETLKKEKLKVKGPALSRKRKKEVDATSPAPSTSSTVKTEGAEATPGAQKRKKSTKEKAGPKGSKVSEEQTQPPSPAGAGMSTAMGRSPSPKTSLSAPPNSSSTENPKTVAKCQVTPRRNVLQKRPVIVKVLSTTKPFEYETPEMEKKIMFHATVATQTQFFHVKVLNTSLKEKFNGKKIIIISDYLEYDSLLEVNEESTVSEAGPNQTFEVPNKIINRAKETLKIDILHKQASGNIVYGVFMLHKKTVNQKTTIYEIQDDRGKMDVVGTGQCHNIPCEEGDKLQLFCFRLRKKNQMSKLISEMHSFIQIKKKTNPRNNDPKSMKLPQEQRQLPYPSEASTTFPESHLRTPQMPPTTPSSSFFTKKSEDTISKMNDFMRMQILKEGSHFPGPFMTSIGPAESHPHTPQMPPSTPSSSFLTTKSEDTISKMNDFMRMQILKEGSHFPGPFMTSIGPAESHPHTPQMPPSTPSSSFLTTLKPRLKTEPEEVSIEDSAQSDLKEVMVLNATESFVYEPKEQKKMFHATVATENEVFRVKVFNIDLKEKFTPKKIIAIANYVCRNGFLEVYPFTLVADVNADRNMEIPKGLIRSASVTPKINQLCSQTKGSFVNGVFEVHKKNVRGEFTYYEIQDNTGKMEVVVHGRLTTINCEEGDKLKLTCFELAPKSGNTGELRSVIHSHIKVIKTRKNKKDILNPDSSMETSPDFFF

Results are given in words; binding and its absence hold for the method and conditions named. In cells and extracts the contact can be indirect. Some results given as binding are weak or reduced against the parent protein; the word gives no strength. Sequences can lack the tags named with a protein.

For HA-IFI16 (from UniProt Q16666 1-785), the binding entry is given as “binds”.

Source of the values: PMC6818788.
